Results: publication PMC10518010, “The leaderless communication peptide (LCP) class of quorum-sensing peptides is broadly distributed among Firmicutes” (Nature Communications, 2023)
These are yes or no findings as the source states them, for the method shown. A result given as binding can be weak or reduced; the word gives no strength. Blank lines part the entries; values can stand above or below the molecule they belong to.

Key:
[1] = biological target: T1, FITC-labeled synthetic LCPss (S. salivarius); experiment: fluorescence polarisation; competition: preformed RopB (250 nM)-labeled LCPss (10 nM) complex challenged with unlabeled peptides; both purified
T1 sequence (peptide, FITC (fluorescein) label, position not stated): MWLILLFL

[2] = biological target: RopBss (RopB homolog, cytosolic LCP receptor of Streptococcus salivarius) (S. salivarius); experiment: as above

binding [1]: binds
Molecule: RopBss (RopB homolog, cytosolic LCP receptor of Streptococcus salivarius) (S. salivarius)

binding [2]: binds
B1: synthetic LCPss (unlabeled) (peptide)
peptide: MWLILLFL
